Experimental data reported in US10653737B1, “Synergistic nutritional compositions for pain management” (Celagenex Research (India) Pvt. Ltd., priority 2019, dated 2020).

Experiment: Body weight of experimental animals
Type: in vivo
Settings: male Swiss albino mice, per treatment group, n=6

| Structure (SMILES) | Body weight |
| --- | --- |
| CC(C)C[C@H](CN)CC(=O)O [Pregabalin (LYRICA ®) 75 mg, Pregabalin, reference compound] | 30.87 ± 0.37 gms |
| CCCCCCCCCCCCCCCC(=O)NCCO [Composition P3A, palmitoylethanolamide] | 32.20 ± 0.52 gms |
